Data from paper PMC13187458.
These are yes or no findings as the source states them, for the method shown. In cells and extracts the contact can be indirect. Some entries that bind do so weakly or less than the wild type. Tags and fused reporters may be left off the sequences shown.

By UniProt entry, the sequences of proteins in these tests, tags left out.
UniProt Q13263: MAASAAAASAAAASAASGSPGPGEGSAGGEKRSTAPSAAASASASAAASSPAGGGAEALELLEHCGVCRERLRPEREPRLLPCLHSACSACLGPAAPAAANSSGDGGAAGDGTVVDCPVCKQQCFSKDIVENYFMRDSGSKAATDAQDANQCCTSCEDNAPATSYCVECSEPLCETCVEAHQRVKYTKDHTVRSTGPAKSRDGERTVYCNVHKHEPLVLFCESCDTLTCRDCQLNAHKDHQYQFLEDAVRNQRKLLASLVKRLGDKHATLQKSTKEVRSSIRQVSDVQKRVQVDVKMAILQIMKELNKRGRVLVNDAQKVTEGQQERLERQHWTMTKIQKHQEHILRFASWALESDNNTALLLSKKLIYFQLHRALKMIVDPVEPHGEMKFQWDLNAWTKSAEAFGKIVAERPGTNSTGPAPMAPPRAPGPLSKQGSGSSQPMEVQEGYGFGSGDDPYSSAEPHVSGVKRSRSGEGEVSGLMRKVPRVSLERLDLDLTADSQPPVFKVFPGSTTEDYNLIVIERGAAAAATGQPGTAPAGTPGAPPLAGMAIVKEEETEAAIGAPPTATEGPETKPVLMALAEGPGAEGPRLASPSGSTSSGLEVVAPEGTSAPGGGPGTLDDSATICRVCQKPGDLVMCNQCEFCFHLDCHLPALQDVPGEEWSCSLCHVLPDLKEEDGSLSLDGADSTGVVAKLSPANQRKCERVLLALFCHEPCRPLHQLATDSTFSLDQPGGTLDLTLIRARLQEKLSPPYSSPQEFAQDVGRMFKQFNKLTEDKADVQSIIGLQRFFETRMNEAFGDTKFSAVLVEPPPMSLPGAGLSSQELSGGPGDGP

Assays:
Flag-tagged COUP-TF2 = biological target: T1, Flag-tagged COUP-TF2 (UniProt P24468); assay: co-IP; lysates of WI38-VA13/2RA cells (2 × 10^7) transiently expressing Flag-tagged COUP-TF2 or TR4; NETN lysis buffer; anti-Flag agarose beads, 4 °C, 30 min; Western blot for endogenous TRIM28; also done after Benzonase treatment of the lysates
T1 sequence: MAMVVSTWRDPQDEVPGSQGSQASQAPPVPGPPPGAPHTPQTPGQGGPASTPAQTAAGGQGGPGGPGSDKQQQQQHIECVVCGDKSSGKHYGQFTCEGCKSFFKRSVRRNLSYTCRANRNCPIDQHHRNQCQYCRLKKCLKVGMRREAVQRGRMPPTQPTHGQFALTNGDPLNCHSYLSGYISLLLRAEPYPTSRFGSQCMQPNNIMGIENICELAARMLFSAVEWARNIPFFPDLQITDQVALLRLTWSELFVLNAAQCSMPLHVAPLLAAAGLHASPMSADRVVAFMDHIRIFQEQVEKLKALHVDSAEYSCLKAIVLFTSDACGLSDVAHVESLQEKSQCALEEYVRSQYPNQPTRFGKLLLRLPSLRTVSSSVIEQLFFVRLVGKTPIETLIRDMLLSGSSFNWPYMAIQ

Flag-tagged TR4 = biological target: T2, Flag-tagged TR4 (UniProt P49116); assay: as above
T2 sequence: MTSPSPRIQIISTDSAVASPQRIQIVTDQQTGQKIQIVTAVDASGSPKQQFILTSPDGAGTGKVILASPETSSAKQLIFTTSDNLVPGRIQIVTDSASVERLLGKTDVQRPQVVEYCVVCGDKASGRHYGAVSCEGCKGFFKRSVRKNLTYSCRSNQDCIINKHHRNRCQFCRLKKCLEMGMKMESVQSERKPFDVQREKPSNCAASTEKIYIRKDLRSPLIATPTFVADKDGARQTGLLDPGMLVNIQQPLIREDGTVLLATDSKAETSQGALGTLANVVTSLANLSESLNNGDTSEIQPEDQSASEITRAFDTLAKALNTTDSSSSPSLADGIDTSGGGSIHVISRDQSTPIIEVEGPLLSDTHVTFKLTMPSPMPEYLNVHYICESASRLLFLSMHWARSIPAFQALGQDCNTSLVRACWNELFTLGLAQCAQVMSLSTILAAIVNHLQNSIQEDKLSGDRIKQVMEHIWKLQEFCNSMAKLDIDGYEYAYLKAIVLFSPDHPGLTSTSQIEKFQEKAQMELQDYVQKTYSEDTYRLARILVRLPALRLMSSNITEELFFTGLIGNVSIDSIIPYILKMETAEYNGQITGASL

binding (Flag-tagged COUP-TF2): binds
binding (Flag-tagged TR4): binds
Substance: TRIM28 (Tripartite motif-containing 28), endogenous (from UniProt Q13263 1-835)
